From PMC6992785, “In cellulo crystallization of Trypanosoma brucei IMP dehydrogenase enables the identification of genuine co-factors” (Nature Communications, 2020)
These are yes or no findings as the source states them, for the method shown. Some binding calls cover weakened binding; strength is not graded here.

Molecular target: Trypanosoma brucei inosine-5'-monophosphate dehydrogenase (Trypanosoma brucei) (UniProt P50098)
Assay: crystal structure; serial femtosecond crystallography (XFEL, LCLS CXI) at room temperature (291 K) on crystals grown in living Sf9 cells, isolated and kept in PBS; 2.80 Å; space group P4 21 2, two monomers in the asymmetric unit; native ATP and GMP bound

B1: Trypanosoma brucei inosine-5'-monophosphate dehydrogenase (enzyme, UniProt P50098 1-512, looked up)
chain: MENTNLRTKTLRDGTTAEELFSQDGLSFNDFIILPGFIDFDSSKVNVSGQFTKNILLHLPLVSSPMDTVTESSMARAMALMGGIGVIHNNCTVEQQARMVRSVKLYRNGFIMKPKSVSPDVPVSTIRNIKSEKGISGILVTEGGKYDGKLLGIVCTKDIDFVKDASAPVSQYMTRRENMTVERYPIKLEEAMDVLNRSRHGYLPVLNDKDEVVCLCSRRDAVRARDYPNSSLDRNGHLLCAAATSTREADKGRVAALSEAGIDVLVLDSSQGNTIYQVSFIRWVKKTYPHLEVVAGNVVTQDQAKNLIDAGADSLRIGMGSGSICITQEVLACGRPQATAIYKVARYAASRGVPCVADGGLRNVGDVCKALAVGANVAMLGSMIAGTSETPGEYFFKDGMRLKGYRGMGSIDAMLQGRESGKRYLSENETLQVAQGVAGAVLDKGSVLKLLAYIHKGLQQSAQDIGEVSFDAIREKVYEGQVLFNRRTLTAQSEGAVHSLHHYERKLFASKL
notes: Inosine-5'-monophosphate dehydrogenase of Trypanosoma brucei, full length, with its native C-terminal SKL motif (PTS1); Two monomers in the asymmetric unit; the octamer arises by crystal symmetry; also called TbIMPDH; IMPDH; source: Sf9 insect cells infected with recombinant baculovirus; crystallised in cellulo, crystals isolated by cell lysis (RIPA buffer), washed and stored in PBS; not shown: …
binding: binds
